Where a name gives a salt, the structure may show the parent alone. ± gives the standard deviation of the averaged measurements. Some of the results follow. Single values are uncertain, as repeats are few or missing.

The source of these data is the supplement of paper PMC3682954.

This assay has as its system RAW 264.7. In words: HMGB1-induced TNF-alpha production relative to HMGB1-stimulated control; higher = more TNF-alpha secretion (less inhibition). To be noted: stimulus: HMGB1 5 ug/ml, 18 h.
Setting [1] is: compound concentration: 1 ug/ml.

In the case of `CCOC(=O)[C@H](CCc1ccccc1)N[C@@H](C)C(=O)N1[C@H](C(=O)O)C[C@@H]2CCC[C@@H]21` [Ramipril], the “HMGB1-induced TNF-alpha production” value (compound concentration: 3 uM) is 96.4 ± 16%.
Turning to `Cn1c(=O)c2[nH]c(C3CCCC3)nc2n(C)c1=O` [8-Cyclopentyl-1,3-dimethylxanthine], the “HMGB1-induced TNF-alpha production” value (compound concentration: 3 uM) is 92.7%.
The same measure, in the same setting: for `C=NC(C(=O)NC1C(=O)N2C1SC(C)(C)C2C(=O)O)c1ccccc1` (stereo not drawn) the value was 79.8%.
Same read-out and setting: the same measure for `CC(C)COCC(CN(Cc1ccccc1)c1ccccc1)N1CCCC1` (stereo not drawn) [Bepridil]: 92.3%.
`CC(C)COCC(CN(Cc1ccccc1)c1ccccc1)N1CCCC1` (stereo not drawn) [Bepridil hydrochloride]: the “HMGB1-induced TNF-alpha production” value (compound concentration: 3 uM) stood at 71.3 ± 29%.
With `CC(C)COCC(CN(Cc1ccccc1)c1ccccc1)N1CCCC1` (stereo not drawn), the “HMGB1-induced TNF-alpha production” value (compound concentration: 3 uM) was 97.2%.
Consider `O=C(O)c1cc(=O)c2ccccc2o1`, for which the “HMGB1-induced TNF-alpha production” value (compound concentration: 3 uM) turned out to be 86.4%.
For the molecule `COc1ccc2oc(-c3ccccc3)c(OC)c(=O)c2c1`, the “HMGB1-induced TNF-alpha production” value under setting [1] came to 57.1%.
As to `NC(=S)c1ccc[n+]([C@@H]2O[C@@H](COP(=O)([O-])OP(=O)(O)OC[C@H]3O[C@@H](n4cnc5c(N)ncnc54)C(OP(=O)(O)O)[C@H]3O)C(O)C2O)c1` (stereo partly drawn) [Thio-NADP sodium], for the setting “compound concentration: 3 uM”, the “HMGB1-induced TNF-alpha production” value worked out at 103%.
Same read-out and setting: the same measure for `NS(=O)(=O)c1cc(C(=O)O)c(NCc2ccco2)cc1Cl`: 83.1%; for `NS(=O)(=O)c1cc(C(=O)O)c(NCc2ccco2)cc1Cl` [Furosemide]: 82.1 ± 15%.
The same measure, in the same setting: the same measure for `Cc1cc(C2CCCCC2)n(O)c(=O)c1` [Ciclopirox ethanolamine]: 59.9%; for `Cc1cc(C2CCCCC2)n(O)c(=O)c1`: 76.6%.
As for `O=c1ccn(C2OC(COc3ccc([N+](=O)[O-])cc3)C(O)C2O)c(=O)[nH]1` (stereo not drawn), the “HMGB1-induced TNF-alpha production” value under setting [1] was 76.8%.
`COc1cc(C(=O)NS(=O)(=O)c2ccccc2C)ccc1Cc1cn(C)c2ccc(NC(=O)OC3CCCC3)cc12`: the “HMGB1-induced TNF-alpha production” value (compound concentration: 3 uM) is 131%.
Same read-out and setting: for `COc1cc(C(=O)NS(=O)(=O)c2ccccc2C)ccc1Cc1cn(C)c2ccc(NC(=O)OC3CCCC3)cc12` [Zafirlukast] the value was 113 ± 6.3%.
Consider `COc1ccc(C2C(=O)c3ccccc3C2=O)cc1`, for which, for the setting “compound concentration: 3 uM”, the “HMGB1-induced TNF-alpha production” value was found to be 96.7%.
On the same count and under the same terms, for `Cc1cccc(C)c1NC(=O)C1CCCCN1C` (stereo not drawn) the value was 86.9 ± 18%; for `Cc1cccc(C)c1NC(=O)C1CCCCN1C` (stereo not drawn) [Mepivacaine hydrochloride], 89.5%.
Take `COc1cc(/C=C/C(=O)N2CCC=CC2=O)cc(OC)c1OC`: the “HMGB1-induced TNF-alpha production” value under setting [1] was -2.65%.
Consider `CN(C)c1ccc2nc3ccc(=[N+](C)C)cc-3sc2c1`, for which, under “compound concentration: 3 uM”, the “HMGB1-induced TNF-alpha production” value came to 86%.
On the same count and under the same terms, the same measure for `CN1C(C(=O)Nc2ccccn2)=C(O)c2sccc2S1(=O)=O` [Tenoxicam]: 73.4 ± 26%; for `CN1C(C(=O)Nc2ccccn2)=C(O)c2sccc2S1(=O)=O`: 118%.
Turning to `Cc1cc2c(c(O)c1-c1c(C)cc3c(c1O)C(=O)C(O)C3C(C)C)C(=O)C(O)C2C(C)C` (stereo not drawn), under setting [1], the “HMGB1-induced TNF-alpha production” value came out at 83.5%.
Consider `Cc1ncc([N+](=O)[O-])n1CC(O)CCl` (stereo not drawn), for which, where the note is “compound concentration: 3 uM”, the “HMGB1-induced TNF-alpha production” value worked out at 97.7 ± 18%.
Same read-out and setting: the same measure for `Cc1ncc([N+](=O)[O-])n1CC(O)CCl` (stereo not drawn) [Ornidazole]: 102%.
Consider `O=P(O)(O)C(Sc1ccc(Cl)cc1)P(=O)(O)O` [Tiludronate disodium], for which, under “compound concentration: 3 uM”, the “HMGB1-induced TNF-alpha production” value is 116%.
Consider `C[C@]12CC[C@H]3C(=CCc4cc(O)ccc43)[C@@H]1CCC2=O` [Equilin], for which the “HMGB1-induced TNF-alpha production” value was 78.8% under setting [1] and 115% (compound concentration: 3 uM).
As for `C[C@]12CC[C@H]3C(=CCc4cc(O)ccc43)[C@@H]1CCC2=O`, the “HMGB1-induced TNF-alpha production” value (compound concentration: 3 uM) amounted to 76.7%.
Still for that read-out and setting: the same measure for `C[C@]12C=CC(=O)C=C1CC[C@@H]1[C@@H]2[C@@H](O)C[C@@]2(C)[C@H]1CC[C@]2(O)C(=O)COP(=O)(O)O`: 59.9%.
Same read-out and setting: for `O=C1CCC(N2C(=O)c3ccccc3C2=O)C(=O)N1` (racemic) [(±)-Thalidomide] the value was 104%; for `N=C(N)N`, 78%; for `Cc1c(C(N)=O)cc([N+](=O)[O-])cc1[N+](=O)[O-]`, 73.7%.
Take `CNC(=O)[C@H]1O[C@@H](n2cnc3c(NCc4cccc(I)c4)ncnc32)[C@H](O)[C@@H]1O`: the “HMGB1-induced TNF-alpha production” value (compound concentration: 3 uM) turned out to be 101%.
The same measure, in the same setting: for `C=C[C@H]1CN2CC[C@H]1C[C@@H]2[C@@H](O)c1ccnc2ccc(OC)cc12` [Quinidine sulfate] the value was 96.5%; for `C=C[C@H]1CN2CC[C@H]1C[C@@H]2[C@@H](O)c1ccnc2ccc(OC)cc12`, 84.3%.
Consider `C=C[C@H]1CN2CC[C@H]1C[C@@H]2[C@@H](O)c1ccnc2ccc(OC)cc12` [Quinidine hydrochloride monohydrate], for which the “HMGB1-induced TNF-alpha production” value (compound concentration: 3 uM) turned out to be 69.2%.
